PubChem BioAssay AID1259308 | NCATS, 2017

Aim: 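Candidate targets for better recombinant protein yield in mammalian cells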 (primary screen)
Cell system: human HEK293 embryonic kidney cells stably expressing firefly luciferase (HEK-CMV-Luc2-Hygro)
Reagent: single siRNA against human genes, 0.8 pmol siRNA per well
Time to read-out: 72 h
Read-out: 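Luciferase light (ONE-Glo) measured on one replicate plate set and viability (CellTiter-Glo) on the other, scaled to a negative control siRNA, with robust z-scores and luciferase per cell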
Scale: total luciferase, z-score and total luciferase, % of control: higher = more reporter protein produced; luciferase per cell, z-score: higher = more reporter output per viable cell; viable cells, % of control: higher = more viable cells
Hit rule: 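Active when the median/MAD z-score for overall luciferase is greater than 3; a gene was taken forward for validation with new siRNAs if at least two of its three siRNAs passed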
Calls: active = raised luciferase; inactive = no rise
In all, the deposit lists about 59,000 reagents; shown is an unselected part. About 1,510 of all reagents (2.6%) were called active. 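Calls use total luciferase alone and ignore viability, so some active siRNAs may act by altering cell number.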 Reagents against one gene are numbered here.

| target gene | siRNA no. | total luciferase, z-score | total luciferase, % of control | luciferase per cell, z-score | viable cells, % of control | activity call |
| --- | --- | --- | --- | --- | --- | --- |
| KLHL2P1 (kelch like family member 2 pseudogene 1) | 1 | -0.494 | 72.1 | 0.042 | 79.6 | inactive |
| KLHL2P1 (kelch like family member 2 pseudogene 1) | 2 | -0.841 | 65.2 | -0.421 | 81.3 | inactive |
| KLHL2P1 (kelch like family member 2 pseudogene 1) | 3 | 0.631 | 94.4 | 0.703 | 87.7 | inactive |
| LOC729866 (retired record) | 1 | 0.902 | 99.8 | 2.06 | 64.9 | inactive |
| LOC729866 (retired record) | 2 | 1.43 | 110 | 2.21 | 68.9 | inactive |
| LOC729866 (retired record) | 3 | -0.0246 | 81.4 | 0.726 | 75.1 | inactive |
| SPATA19 (spermatogenesis associated 19) | 1 | -0.593 | 70.1 | -0.248 | 83.6 | inactive |
| SPATA19 (spermatogenesis associated 19) | 2 | -0.8 | 66 | -1.18 | 101 | inactive |
| SPATA19 (spermatogenesis associated 19) | 3 | 0.334 | 88.5 | 1.45 | 67.5 | inactive |
| BTBD3 (BTB domain containing 3) | 1 | 0.893 | 99.6 | 0.691 | 92.8 | inactive |
| BTBD3 (BTB domain containing 3) | 2 | 0.453 | 90.9 | 0.622 | 86.2 | inactive |
| BTBD3 (BTB domain containing 3) | 3 | -0.0158 | 81.6 | 0.279 | 84.7 | inactive |
| PCBD1 (pterin-4 alpha-carbinolamine dehydratase 1) | 1 | -0.316 | 75.6 | 1.27 | 60.5 | inactive |
| PCBD1 (pterin-4 alpha-carbinolamine dehydratase 1) | 2 | 1.25 | 107 | 0.542 | 103 | inactive |
| PCBD1 (pterin-4 alpha-carbinolamine dehydratase 1) | 3 | -1.15 | 59 | -1.39 | 95.1 | inactive |
| CCL17 (C-C motif chemokine ligand 17) | 1 | -0.287 | 76.2 | -0.146 | 88.5 | inactive |
| CCL17 (C-C motif chemokine ligand 17) | 2 | 0.0849 | 83.6 | -0.85 | 117 | inactive |
| CCL17 (C-C motif chemokine ligand 17) | 3 | -0.0324 | 81.2 | -0.499 | 104 | inactive |
| HSPA1A (heat shock protein family A (Hsp70) member 1A) | 1 | 1.36 | 109 | 1.23 | 88.1 | inactive |
| HSPA1A (heat shock protein family A (Hsp70) member 1A) | 2 | 1.79 | 117 | 1.7 | 83.9 | inactive |
| HSPA1A (heat shock protein family A (Hsp70) member 1A) | 3 | -0.00137 | 81.9 | 0.337 | 83.7 | inactive |
| RSPO1 (R-spondin 1) | 1 | -0.111 | 79.7 | 0.00907 | 88.8 | inactive |
| RSPO1 (R-spondin 1) | 2 | -0.5 | 71.9 | -0.568 | 93.4 | inactive |
| RSPO1 (R-spondin 1) | 3 | -0.205 | 77.8 | -0.118 | 89.7 | inactive |
| DNHD1 (dynein heavy chain domain 1) | 1 | -0.466 | 72.6 | 0.519 | 70.8 | inactive |
| DNHD1 (dynein heavy chain domain 1) | 2 | -0.489 | 72.2 | -0.177 | 84.5 | inactive |
| DNHD1 (dynein heavy chain domain 1) | 3 | 1.13 | 104 | 1.2 | 84.9 | inactive |
| DNHD1 (dynein heavy chain domain 1) | 4 | -0.833 | 65.3 | -0.237 | 77.7 | inactive |
| DNHD1 (dynein heavy chain domain 1) | 5 | 0.812 | 98 | 2.26 | 60.4 | inactive |
| DNHD1 (dynein heavy chain domain 1) | 6 | 0.199 | 85.8 | -0.123 | 99.1 | inactive |
| DNHD1 (dynein heavy chain domain 1) | 7 | -0.917 | 63.7 | 0.0647 | 69.9 | inactive |
| DNHD1 (dynein heavy chain domain 1) | 8 | -0.778 | 66.4 | -0.163 | 77.5 | inactive |
| DNHD1 (dynein heavy chain domain 1) | 9 | -1.81 | 45.9 | -0.00063 | 51.3 | inactive |
| VPS36 (vacuolar protein sorting 36 homolog) | 1 | -2.84 | 25.5 | -3.34 | 68.6 | inactive |
| VPS36 (vacuolar protein sorting 36 homolog) | 2 | 1.28 | 107 | 1.1 | 89.9 | inactive |
| VPS36 (vacuolar protein sorting 36 homolog) | 3 | 0.438 | 90.6 | 1.72 | 64.3 | inactive |
| AFP (alpha fetoprotein) | 1 | 0.35 | 88.9 | -0.146 | 103 | inactive |
| AFP (alpha fetoprotein) | 2 | 0.977 | 101 | 1.65 | 73.3 | inactive |
| AFP (alpha fetoprotein) | 3 | 1.02 | 102 | 0.406 | 103 | inactive |
| LRTM2 (leucine rich repeat transmembrane protein 2) | 1 | -0.978 | 62.4 | -0.701 | 83.9 | inactive |
| LRTM2 (leucine rich repeat transmembrane protein 2) | 2 | -0.265 | 76.6 | -0.678 | 102 | inactive |
| LRTM2 (leucine rich repeat transmembrane protein 2) | 3 | 2.1 | 124 | 1.28 | 98.8 | inactive |

Copied from the listing, 11 entries:
| target gene | siRNA no. | total luciferase, z-score | total luciferase, % of control | luciferase per cell, z-score | viable cells, % of control | activity call |
| --- | --- | --- | --- | --- | --- | --- |
| RSPO1 (R-spondin 1) | 3 | -0.205 | 77.8 | -0.118 | 89.7 | inactive |
| DNHD1 (dynein heavy chain domain 1) | 1 | -0.466 | 72.6 | 0.519 | 70.8 | inactive |
| DNHD1 (dynein heavy chain domain 1) | 2 | -0.489 | 72.2 | -0.177 | 84.5 | inactive |
| DNHD1 (dynein heavy chain domain 1) | 3 | 1.13 | 104 | 1.2 | 84.9 | inactive |
| DNHD1 (dynein heavy chain domain 1) | 4 | -0.833 | 65.3 | -0.237 | 77.7 | inactive |
| DNHD1 (dynein heavy chain domain 1) | 5 | 0.812 | 98 | 2.26 | 60.4 | inactive |
| DNHD1 (dynein heavy chain domain 1) | 6 | 0.199 | 85.8 | -0.123 | 99.1 | inactive |
| DNHD1 (dynein heavy chain domain 1) | 7 | -0.917 | 63.7 | 0.0647 | 69.9 | inactive |
| DNHD1 (dynein heavy chain domain 1) | 8 | -0.778 | 66.4 | -0.163 | 77.5 | inactive |
| DNHD1 (dynein heavy chain domain 1) | 9 | -1.81 | 45.9 | -0.00063 | 51.3 | inactive |
| VPS36 (vacuolar protein sorting 36 homolog) | 1 | -2.84 | 25.5 | -3.34 | 68.6 | inactive |

Further records:
| target gene | siRNA no. | total luciferase, z-score | total luciferase, % of control | luciferase per cell, z-score | viable cells, % of control | activity call |
| --- | --- | --- | --- | --- | --- | --- |
| METTL15P3 (methyltransferase like 15 pseudogene 3) | 1 | -1.07 | 60.7 | 0.255 | 63.4 | inactive |
| METTL15P3 (methyltransferase like 15 pseudogene 3) | 2 | 2.9 | 139 | 1.96 | 93.1 | inactive |
| METTL15P3 (methyltransferase like 15 pseudogene 3) | 3 | 1.42 | 110 | 1.42 | 84.7 | inactive |
| ZNF667 (zinc finger protein 667) | 1 | -0.483 | 72.3 | 0.714 | 66.9 | inactive |
| ZNF667 (zinc finger protein 667) | 2 | -2 | 42 | -2.21 | 84.1 | inactive |
| ZNF667 (zinc finger protein 667) | 3 | -0.261 | 76.7 | 0.438 | 76.4 | inactive |
| PLEKHH3 (pleckstrin homology, MyTH4 and FERM domain containing H3) | 1 | -1.86 | 45 | -0.863 | 63.1 | inactive |
| PLEKHH3 (pleckstrin homology, MyTH4 and FERM domain containing H3) | 2 | 0.22 | 86.3 | 0.746 | 79.2 | inactive |
| PLEKHH3 (pleckstrin homology, MyTH4 and FERM domain containing H3) | 3 | -0.664 | 68.7 | -0.487 | 87.2 | inactive |
| PRKAA1 (protein kinase AMP-activated catalytic subunit alpha 1) | 1 | -0.0012 | 81.9 | -0.329 | 99.7 | inactive |
| PRKAA1 (protein kinase AMP-activated catalytic subunit alpha 1) | 2 | -1.32 | 55.6 | -0.641 | 73.5 | inactive |
| PRKAA1 (protein kinase AMP-activated catalytic subunit alpha 1) | 3 | -2.2 | 38.1 | -1.87 | 69.5 | inactive |
| MCM3 (minichromosome maintenance complex component 3) | 1 | -0.573 | 70.5 | -1.09 | 105 | inactive |
| MCM3 (minichromosome maintenance complex component 3) | 2 | 0.563 | 93.1 | -0.23 | 111 | inactive |
| MCM3 (minichromosome maintenance complex component 3) | 3 | 3.81 | 158 | 3.85 | 63.9 | active |
| PFN1P3 (profilin 1 pseudogene 3) | 1 | -0.288 | 76.2 | 0.492 | 74.8 | inactive |
| PFN1P3 (profilin 1 pseudogene 3) | 2 | -0.428 | 73.4 | -0.667 | 97.7 | inactive |
| PFN1P3 (profilin 1 pseudogene 3) | 3 | -0.17 | 78.5 | -0.696 | 105 | inactive |
| ZEB1 (zinc finger E-box binding homeobox 1) | 1 | -0.0841 | 80.2 | 0.304 | 82.7 | inactive |
| ZEB1 (zinc finger E-box binding homeobox 1) | 2 | 0.357 | 89 | -0.358 | 109 | inactive |
| ZEB1 (zinc finger E-box binding homeobox 1) | 3 | 0.538 | 92.6 | 0.572 | 89 | inactive |
| IQGAP2 (IQ motif containing GTPase activating protein 2) | 1 | 1.99 | 121 | 1.84 | 83.6 | inactive |
| IQGAP2 (IQ motif containing GTPase activating protein 2) | 2 | -0.486 | 72.2 | -0.919 | 103 | inactive |
| IQGAP2 (IQ motif containing GTPase activating protein 2) | 3 | -0.215 | 77.6 | -0.223 | 92 | inactive |
| SRSF10 (serine and arginine rich splicing factor 10) | 1 | 0.153 | 84.9 | 0.72 | 78.5 | inactive |
| SRSF10 (serine and arginine rich splicing factor 10) | 2 | -1.95 | 43.1 | -1.38 | 69.3 | inactive |
| SRSF10 (serine and arginine rich splicing factor 10) | 3 | -1.05 | 61 | -1.08 | 90.6 | inactive |
| WWOX (WW domain containing oxidoreductase) | 1 | -0.735 | 67.3 | -0.19 | 79 | inactive |
| WWOX (WW domain containing oxidoreductase) | 2 | 4.35 | 168 | 3.05 | 84.4 | active |
| WWOX (WW domain containing oxidoreductase) | 3 | -0.354 | 74.9 | 0.127 | 80.9 | inactive |
| NPIPB1P | 1 | 0.286 | 87.6 | 0.241 | 91.8 | inactive |
| NPIPB1P | 2 | 0.112 | 84.1 | -0.532 | 108 | inactive |
| NPIPB1P | 3 | 0.505 | 91.9 | 0.0876 | 100 | inactive |
